Data as given in article PMC12467718.

B1: carboxypeptidase D isoform 1 precursor [Homo sapiens] (enzyme, UniProt O75976 32-1380)
chain: AHIKKAEATTTTTSAGAEAAEGQFDRYYHEEELESALREAAAAGLPGLARLFSIGRSVEGRPLWVLRLTAGLGSLIPEGDAGPDAAGPDAAGPLLPGRPQVKLVGNMHGDETVSRQVLIYLARELAAGYRRGDPRLVRLLNTTDVYLLPSLNPDGFERAREGDCGFGDGGPSGASGRDNSRGRDLNRSFPDQFSTGEPPALDEVPEVRALIEWIRRNKFVLSGNLHGGSVVASYPFDDSPEHKATGIYSKTSDDEVFKYLAKAYASNHPIMKTGEPHCPGDEDETFKDGITNGAHWYDVEGGMQDYNYVWANCFEITLELSCCKYPPASQLRQEWENNRESLITLIEKVHIGVKGFVKDSITGSGLENATISVAGINHNITTGRFGDFYRLLVPGTYNLTVVLTGYMPLTVTNVVVKEGPATEVDFSLRPTVTSVIPDTTEAVSTASTVAIPNILSGTSSSYQPIQPKDFHHHHFPDMEIFLRRFANEYPNITRLYSLGKSVESRELYVMEISDNPGVHEPGEPEFKYIGNMHGNEVVGRELLLNLIEYLCKNFGTDPEVTDLVHNTRIHLMPSMNPDGYEKSQEGDSISVIGRNNSNNFDLNRNFPDQFVQITDPTQPETIAVMSWMKSYPFVLSANLHGGSLVVNYPFDDDEQGLATYSKSPDDAVFQQIALSYSKENSQMFQGRPCKNMYPNEYFPHGITNGASWYNVPGGMQDWNYLQTNCFEVTIELGCVKYPLEKELPNFWEQNRRSLIQFMKQVHQGVRGFVLDATDGRGILNATISVAEINHPVTTYKTGDYWRLLVPGTYKITASARGYNPVTKNVTVKSEGAIQVNFTLVRSSTDSNNESKKGKGASSSTNDASDPTTKEFETLIKDLSAENGLESLMLRSSSNLALALYRYHSYKDLSEFLRGLVMNYPHITNLTNLGQSTEYRHIWSLEISNKPNVSEPEEPKIRFVAGIHGNAPVGTELLLALAEFLCLNYKKNPAVTQLVDRTRIVIVPSLNPDGRERAQEKDCTSKIGQTNARGKDLDTDFTNNASQPETKAIIENLIQKQDFSLSVALDGGSMLVTYPYDKPVQTVENKETLKHLASLYANNHPSMHMGQPSCPNKSDENIPGGVMRGAEWHSHLGSMKDYSVTYGHCPEITVYTSCCYFPSAARLPSLWADNKRSLLSMLVEVHKGVHGFVKDKTGKPISKAVIVLNEGIKVQTKEGGYFHVLLAPGVHNIIAIADGYQQQHSQVFVHHDAASSVVIVFDTDNRIFGLPRELVVTVSGATMSALILTACIIWCICSIKSNRHKDGFHRLRQHHDEYEDEIRMMSTGSKKSLLSHEFQDETDTEEETLYSSKH
B2: neutral amino acid transporter B(0) isoform 1 [Homo sapiens] (protein, UniProt Q15758 1-541)
chain: MVADPPRDSKGLAAAEPTANGGLALASIEDQGAAAGGYCGSRDQVRRCLRANLLVLLTVVAVVAGVALGLGVSGAGGALALGPERLSAFVFPGELLLRLLRMIILPLVVCSLIGGAASLDPGALGRLGAWALLFFLVTTLLASALGVGLALALQPGAASAAINASVGAAGSAENAPSKEVLDSFLDLARNIFPSNLVSAAFRSYSTTYEERNITGTRVKVPVGQEVEGMNILGLVVFAIVFGVALRKLGPEGELLIRFFNSFNEATMVLVSWIMWYAPVGIMFLVAGKIVEMEDVGLLFARLGKYILCCLLGHAIHGLLVLPLIYFLFTRKNPYRFLWGIVTPLATAFGTSSSSATLPLMMKCVEENNGVAKHISRFILPIGATVNMDGAALFQCVAAVFIAQLSQQSLDFVKIITILVTATASSVGAAGIPAGGVLTLAIILEAVNLPVDHISLILAVDWLVDRSCTVLNVEGDALGAGLLQNYVDRTESRSTEPELIQVKSELPLDPLPVPTEEGNPLLKHYRGPAGDATVASEKESVM
B3: cytochrome b-245 heavy chain [Homo sapiens] (protein, UniProt P04839 1-570)
chain: MGNWAVNEGLSIFVILVWLGLNVFLFVWYYRVYDIPPKFFYTRKLLGSALALARAPAACLNFNCMLILLPVCRNLLSFLRGSSACCSTRVRRQLDRNLTFHKMVAWMIALHSAIHTIAHLFNVEWCVNARVNNSDPYSVALSELGDRQNESYLNFARKRIKNPEGGLYLAVTLLAGITGVVITLCLILIITSSTKTIRRSYFEVFWYTHHLFVIFFIGLAIHGAERIVRGQTAESLAVHNITVCEQKISEWGKIKECPIPQFAGNPPMTWKWIVGPMFLYLCERLVRFWRSQQKVVITKVVTHPFKTIELQMKKKGFKMEVGQYIFVKCPKVSKLEWHPFTLTSAPEEDFFSIHIRIVGDWTEGLFNACGCDKQEFQDAWKLPKIAVDGPFGTASEDVFSYEVVMLVGAGIGVTPFASILKSVWYKYCNNATNLKLKKIYFYWLCRDTHAFEWFADLLQLLESQMQERNNAGFLSYNIYLTGWDESQANHFAVHHDEEKDVITGLKQKTLYGRPNWDNEFKTIASQHPNTRIGVFLCGPEALAETLSKQSISNSESGPRGVHFIFNKENF
B4: multidrug resistance-associated protein 4 isoform 1 [Homo sapiens] (protein, UniProt O15439 1-1325)
chain: MLPVYQEVKPNPLQDANLCSRVFFWWLNPLFKIGHKRRLEEDDMYSVLPEDRSQHLGEELQGFWDKEVLRAENDAQKPSLTRAIIKCYWKSYLVLGIFTLIEESAKVIQPIFLGKIINYFENYDPMDSVALNTAYAYATVLTFCTLILAILHHLYFYHVQCAGMRLRVAMCHMIYRKALRLSNMAMGKTTTGQIVNLLSNDVNKFDQVTVFLHFLWAGPLQAIAVTALLWMEIGISCLAGMAVLIILLPLQSCFGKLFSSLRSKTATFTDARIRTMNEVITGIRIIKMYAWEKSFSNLITNLRKKEISKILRSSCLRGMNLASFFSASKIIVFVTFTTYVLLGSVITASRVFVAVTLYGAVRLTVTLFFPSAIERVSEAIVSIRRIQTFLLLDEISQRNRQLPSDGKKMVHVQDFTAFWDKASETPTLQGLSFTVRPGELLAVVGPVGAGKSSLLSAVLGELAPSHGLVSVHGRIAYVSQQPWVFSGTLRSNILFGKKYEKERYEKVIKACALKKDLQLLEDGDLTVIGDRGTTLSGGQKARVNLARAVYQDADIYLLDDPLSAVDAEVSRHLFELCICQILHEKITILVTHQLQYLKAASQILILKDGKMVQKGTYTEFLKSGIDFGSLLKKDNEESEQPPVPGTPTLRNRTFSESSVWSQQSSRPSLKDGALESQDTENVPVTLSEENRSEGKVGFQAYKNYFRAGAHWIVFIFLILLNTAAQVAYVLQDWWLSYWANKQSMLNVTVNGGGNVTEKLDLNWYLGIYSGLTVATVLFGIARSLLVFYVLVNSSQTLHNKMFESILKAPVLFFDRNPIGRILNRFSKDIGHLDDLLPLTFLDFIQTLLQVVGVVSVAVAVIPWIAIPLVPLGIIFIFLRRYFLETSRDVKRLESTTRSPVFSHLSSSLQGLWTIRAYKAEERCQELFDAHQDLHSEAWFLFLTTSRWFAVRLDAICAMFVIIVAFGSLILAKTLDAGQVGLALSYALTLMGMFQWCVRQSAEVENMMISVERVIEYTDLEKEAPWEYQKRPPPAWPHEGVIIFDNVNFMYSPGGPLVLKHLTALIKSQEKVGIVGRTGAGKSSLISALFRLSEPEGKIWIDKILTTEIGLHDLRKKMSIIPQEPVLFTGTMRKNLDPFNEHTDEELWNALQEVQLKETIEDLPGKMDTELAESGSNFSVGQRQLVCLARAILRKNQILIIDEATANVDPRTDELIQKKIREKFAHCTVLTIAHRLNTIIDSDKIMVLDSGRLKEYDEPYVLLQNKESLFYKMVQQLGKAEAAALTETAKQVYFKRNYPHIGHTDHMVTNTSNGQPSTLTIFETAL
B5: leukosialin precursor [Homo sapiens] (protein, UniProt P16150 20-400)
chain: STTAVQTPTSGEPLVSTSEPLSSKMYTTSITSDPKADSTGDQTSALPPSTSINEGSPLWTSIGASTGSPLPEPTTYQEVSIKMSSVPQETPHATSHPAVPITANSLGSHTVTGGTITTNSPETSSRTSGAPVTTAASSLETSRGTSGPPLTMATVSLETSKGTSGPPVTMATDSLETSTGTTGPPVTMTTGSLEPSSGASGPQVSSVKLSTMMSPTTSTNASTVPFRNPDENSRGMLPVAVLVALLAVIVLVALLLLWRRRQKRRTGALVLSRGGKRNGVVDAWAGPAQVPEEGAVTVTVGGSGGDKGSGFPDGEGSSRRPTLTTFFGRRKSRQGSLAMEELKSGSGPSLKGEEEPLVASEDGAVDAPAPDEPEGGDGAAP

The binders below were run against C-terminal domain of Gal-8, immobilized on Affi-Gel-10 beads (human) (assay: affinity purification with mass spectrometry; 8 mL HL-60 membrane preparation with 3 mL Gal-8-beads or Gal-8C-beads (10 mg/mL, Affi-Gel-10), 1 h at 4 °C, PBS-1.5% Triton X-100; sucrose wash, 100 mM lactose elution; 75-250 kDa Coomassie bands, LC-MS/MS; only the target purified).

Binder | binding
B1 | binds
B2 | binds
B3 | binds
B4 | no binding
B5 | no binding

Results are given in words; binding and its absence hold for the method and conditions named. In cells and extracts the contact can be indirect. These calls come from enrichment with a bait or labelling near it, and not all partners need be listed. No binding means not detected with the bait.
